PubChem BioAssay AID1259254, NCATS, 2017
Shown is a random part of about 59,000 reagents tested. About 1,550 of them (2.6%) count as active. 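G2 share is only a proxy for re-replication; each gene was hit by three separate siRNAs, and active genes were retested.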 Entries without a mark were called inactive. Reagents against one gene are numbered here. Not all columns of the deposit are shown. Not given: the amount of reagent.

- Purpose: 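Genome-wide screen for genes that prevent DNA re-replication in cancer cells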 (primary screen)
- Cells: human HCT116 colorectal cancer cells
- Reagent: single siRNA against human genes
- Duration: 3 days
- Detection: 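Nuclei stained with Hoechst and imaged; cell-cycle phase assigned by DNA content; G2 share scaled per plate, non-targeting siRNA 0%, GMNN siRNA 100%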
- Reading the numbers: G2 robust z-score and G2 cells, % of GMNN control: higher = more G2 cells, more excess DNA replication
- Rule for the call: 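Active siRNAs have a G2 robust z of 5 or more median absolute deviations over the median, which in these data means about 38% or higher of GMNN control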

The opening 3 entries, to show the layout:
target gene | reagent | G2 robust z-score | G2 cells, % of GMNN control
FAM234A (GeneID 83986) | 1 | -0.501 | -0.56
FAM234A (GeneID 83986) | 2 | 4.42 | 34.1
FAM234A (GeneID 83986) | 3 | -0.709 | -2.02

The listing, from the first entry:
target gene | reagent | G2 robust z-score | G2 cells, % of GMNN control
FAM234A (GeneID 83986) | 1 | -0.501 | -0.56
FAM234A (GeneID 83986) | 2 | 4.42 | 34.1
FAM234A (GeneID 83986) | 3 | -0.709 | -2.02
IDH3A (GeneID 3419) | 1 | -0.448 | -0.183
IDH3A (GeneID 3419) | 2 | -0.0523 | 2.6
IDH3A (GeneID 3419) | 3 | 0.308 | 5.13
TNFRSF17 (GeneID 608) | 1 | 1.14 | 11
TNFRSF17 (GeneID 608) | 2 | -1.24 | -5.79
TNFRSF17 (GeneID 608) | 3 | -1.32 | -6.29
ABRAXAS2 (GeneID 23172) | 1 | 0.236 | 4.63
ABRAXAS2 (GeneID 23172) | 2 | -0.942 | -3.66
ABRAXAS2 (GeneID 23172) | 3 | -0.507 | -0.602
FAR2 (GeneID 55711) | 1 | -0.36 | 0.435
FAR2 (GeneID 55711) | 2 | 1.5 | 13.5
FAR2 (GeneID 55711) | 3 | 0.172 | 4.18
KLHL1 (GeneID 57626) | 1 | 1.1 | 10.7
KLHL1 (GeneID 57626) | 2 | 4.38 | 33.8
KLHL1 (GeneID 57626) | 3 | -0.392 | 0.209
ASCL5 (GeneID 647219) | 1 | -0.696 | -1.93
ASCL5 (GeneID 647219) | 2 | 0.762 | 8.33
ASCL5 (GeneID 647219) | 3 | -1.22 | -5.6
ASCL5 (GeneID 647219) | 4 | 2.08 | 17.6
ASCL5 (GeneID 647219) | 5 | -0.699 | -1.95
ASCL5 (GeneID 647219) | 6 | 2.69 | 21.9
UFSP1 (GeneID 402682) | 1 | -0.946 | -3.69
UFSP1 (GeneID 402682) | 2 | 2.09 | 17.7
UFSP1 (GeneID 402682) | 3 | 1.3 | 12.1
HADH (GeneID 3033) | 1 | -0.45 | -0.199
HADH (GeneID 3033) | 2 | -0.638 | -1.52
HADH (GeneID 3033) | 3 | 2.2 | 18.5
QNG1 (GeneID 84267) | 1 | -0.572 | -1.06
QNG1 (GeneID 84267) | 2 | -0.359 | 0.442
QNG1 (GeneID 84267) | 3 | 0.687 | 7.8
LY6G6F (GeneID 259215) | 1 | 1.55 | 13.9
LY6G6F (GeneID 259215) | 2 | 2.14 | 18
LY6G6F (GeneID 259215) | 3 | -0.627 | -1.44
FUNDC2P2 (GeneID 388965) | 1 | 1.44 | 13.1
FUNDC2P2 (GeneID 388965) | 2 | -0.0448 | 2.65
FUNDC2P2 (GeneID 388965) | 3 | -0.454 | -0.227
RBM25 (GeneID 58517) | 1 | -0.627 | -1.45
RBM25 (GeneID 58517) | 2 | 1.64 | 14.5
RBM25 (GeneID 58517) | 3 | 0.277 | 4.91
CBX7 (GeneID 23492) | 1 | -0.847 | -2.99
CBX7 (GeneID 23492) | 2 | 2.12 | 17.9
CBX7 (GeneID 23492) | 3 | 0.799 | 8.59
DIXDC1 (GeneID 85458) | 1 | -0.722 | -2.12
DIXDC1 (GeneID 85458) | 2 | -0.627 | -1.44
DIXDC1 (GeneID 85458) | 3 | 2.72 | 22.1
RPL26 (GeneID 6154) | 1 | 5.55 (active) | 42
RPL26 (GeneID 6154) | 2 | 1.16 | 11.1
RPL26 (GeneID 6154) | 3 | 8.68 (active) | 64
ATP5MF (GeneID 9551) | 1 | 0.0108 | 3.04
ATP5MF (GeneID 9551) | 2 | -0.569 | -1.03
ATP5MF (GeneID 9551) | 3 | -0.404 | 0.123
PI4K2A (GeneID 55361) | 1 | 8.44 (active) | 62.3
PI4K2A (GeneID 55361) | 2 | 1.56 | 13.9
PI4K2A (GeneID 55361) | 3 | -1.19 | -5.42
CLSPN (GeneID 63967) | 1 | -0.0693 | 2.48
CLSPN (GeneID 63967) | 2 | 0.325 | 5.25
CLSPN (GeneID 63967) | 3 | -0.985 | -3.96
SNX29 (GeneID 92017) | 1 | -0.797 | -2.64
SNX29 (GeneID 92017) | 2 | -1.23 | -5.72
SNX29 (GeneID 92017) | 3 | -0.925 | -3.54
SNX29 (GeneID 92017) | 4 | 0.509 | 6.55
SNX29 (GeneID 92017) | 5 | -0.557 | -0.955
SNX29 (GeneID 92017) | 6 | -0.246 | 1.24
OR2C1 (GeneID 4993) | 1 | 0.431 | 6
OR2C1 (GeneID 4993) | 2 | -1.24 | -5.79
OR2C1 (GeneID 4993) | 3 | -0.0394 | 2.69
